Compound in this assay: Cc1cc(ccc1-c1ccccc1)C(=O)N1CCCN(CC1)C(=O)CCl [compound 10]
The experiment in a line: probe-labelled cysteine peptide fold change vs DMSO (competition) (log2 fold change); higher = less target engagement (more negative = stronger competition). To be noted: THP-1, incubation time: 4 h.

Chains of the proteins cited; added tags and fusions are not shown. Lines headed by an entry give the natural chain unless they say otherwise; changes in a name come on top.
UniProt Q9Y5Q8: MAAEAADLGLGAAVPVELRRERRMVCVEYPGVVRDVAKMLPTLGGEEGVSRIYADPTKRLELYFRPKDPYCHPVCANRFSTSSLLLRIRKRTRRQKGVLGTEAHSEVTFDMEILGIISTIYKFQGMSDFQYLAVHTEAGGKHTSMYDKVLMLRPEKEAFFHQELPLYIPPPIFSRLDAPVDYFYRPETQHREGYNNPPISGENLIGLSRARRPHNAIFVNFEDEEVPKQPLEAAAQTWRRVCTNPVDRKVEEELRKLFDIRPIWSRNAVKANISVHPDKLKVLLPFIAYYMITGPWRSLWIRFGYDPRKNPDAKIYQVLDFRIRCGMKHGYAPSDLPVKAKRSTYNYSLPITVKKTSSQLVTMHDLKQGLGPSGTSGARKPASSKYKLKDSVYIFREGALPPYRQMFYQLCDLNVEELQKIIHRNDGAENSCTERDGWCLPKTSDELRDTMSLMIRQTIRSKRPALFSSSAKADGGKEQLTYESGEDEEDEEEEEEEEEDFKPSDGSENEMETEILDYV
UniProt P00390: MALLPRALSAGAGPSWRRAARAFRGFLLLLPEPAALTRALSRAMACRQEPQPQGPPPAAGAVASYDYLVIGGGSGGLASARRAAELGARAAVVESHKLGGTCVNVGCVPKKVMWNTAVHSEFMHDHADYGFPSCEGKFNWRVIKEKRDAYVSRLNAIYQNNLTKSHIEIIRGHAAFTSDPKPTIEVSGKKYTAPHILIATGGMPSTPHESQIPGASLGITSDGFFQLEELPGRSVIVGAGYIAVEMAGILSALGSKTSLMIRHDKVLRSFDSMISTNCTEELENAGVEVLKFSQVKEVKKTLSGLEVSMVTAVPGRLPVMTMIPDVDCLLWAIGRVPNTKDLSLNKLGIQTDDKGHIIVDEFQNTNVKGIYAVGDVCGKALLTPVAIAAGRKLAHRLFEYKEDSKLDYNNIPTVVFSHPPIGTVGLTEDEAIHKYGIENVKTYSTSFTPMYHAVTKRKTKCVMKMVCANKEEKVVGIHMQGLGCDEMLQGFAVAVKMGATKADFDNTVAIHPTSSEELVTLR
UniProt P28799: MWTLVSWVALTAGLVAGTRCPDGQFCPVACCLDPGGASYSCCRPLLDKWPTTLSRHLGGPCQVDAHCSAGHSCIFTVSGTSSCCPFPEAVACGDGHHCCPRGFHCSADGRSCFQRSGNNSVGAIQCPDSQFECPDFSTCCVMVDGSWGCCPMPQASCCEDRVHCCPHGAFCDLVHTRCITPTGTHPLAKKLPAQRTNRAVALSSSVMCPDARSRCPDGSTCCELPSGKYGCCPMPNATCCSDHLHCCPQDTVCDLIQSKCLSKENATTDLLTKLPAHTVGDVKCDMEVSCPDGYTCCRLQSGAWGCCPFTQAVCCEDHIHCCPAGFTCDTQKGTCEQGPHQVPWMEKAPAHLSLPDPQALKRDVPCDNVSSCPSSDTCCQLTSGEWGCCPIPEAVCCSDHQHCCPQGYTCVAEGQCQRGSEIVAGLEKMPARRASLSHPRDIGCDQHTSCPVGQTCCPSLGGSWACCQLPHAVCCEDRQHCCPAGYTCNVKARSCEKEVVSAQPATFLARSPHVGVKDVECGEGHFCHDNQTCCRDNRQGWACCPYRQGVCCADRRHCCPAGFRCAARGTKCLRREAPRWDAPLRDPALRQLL
UniProt Q9UBQ7: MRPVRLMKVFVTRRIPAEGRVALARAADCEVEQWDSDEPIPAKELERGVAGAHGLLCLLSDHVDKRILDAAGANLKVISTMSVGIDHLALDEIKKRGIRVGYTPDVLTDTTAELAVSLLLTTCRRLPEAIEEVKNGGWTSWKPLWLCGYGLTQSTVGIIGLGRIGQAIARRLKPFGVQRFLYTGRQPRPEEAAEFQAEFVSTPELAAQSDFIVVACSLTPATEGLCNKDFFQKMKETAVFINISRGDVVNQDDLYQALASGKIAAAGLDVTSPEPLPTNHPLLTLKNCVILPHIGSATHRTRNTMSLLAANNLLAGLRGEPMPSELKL
UniProt Q96CS2: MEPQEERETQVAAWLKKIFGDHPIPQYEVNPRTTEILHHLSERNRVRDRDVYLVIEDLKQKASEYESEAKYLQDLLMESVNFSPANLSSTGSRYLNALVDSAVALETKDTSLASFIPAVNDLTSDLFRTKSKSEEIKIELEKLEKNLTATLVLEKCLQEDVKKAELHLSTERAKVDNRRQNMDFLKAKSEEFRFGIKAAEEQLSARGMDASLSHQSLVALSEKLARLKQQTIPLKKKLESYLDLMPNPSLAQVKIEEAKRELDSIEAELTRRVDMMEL
UniProt Q12789: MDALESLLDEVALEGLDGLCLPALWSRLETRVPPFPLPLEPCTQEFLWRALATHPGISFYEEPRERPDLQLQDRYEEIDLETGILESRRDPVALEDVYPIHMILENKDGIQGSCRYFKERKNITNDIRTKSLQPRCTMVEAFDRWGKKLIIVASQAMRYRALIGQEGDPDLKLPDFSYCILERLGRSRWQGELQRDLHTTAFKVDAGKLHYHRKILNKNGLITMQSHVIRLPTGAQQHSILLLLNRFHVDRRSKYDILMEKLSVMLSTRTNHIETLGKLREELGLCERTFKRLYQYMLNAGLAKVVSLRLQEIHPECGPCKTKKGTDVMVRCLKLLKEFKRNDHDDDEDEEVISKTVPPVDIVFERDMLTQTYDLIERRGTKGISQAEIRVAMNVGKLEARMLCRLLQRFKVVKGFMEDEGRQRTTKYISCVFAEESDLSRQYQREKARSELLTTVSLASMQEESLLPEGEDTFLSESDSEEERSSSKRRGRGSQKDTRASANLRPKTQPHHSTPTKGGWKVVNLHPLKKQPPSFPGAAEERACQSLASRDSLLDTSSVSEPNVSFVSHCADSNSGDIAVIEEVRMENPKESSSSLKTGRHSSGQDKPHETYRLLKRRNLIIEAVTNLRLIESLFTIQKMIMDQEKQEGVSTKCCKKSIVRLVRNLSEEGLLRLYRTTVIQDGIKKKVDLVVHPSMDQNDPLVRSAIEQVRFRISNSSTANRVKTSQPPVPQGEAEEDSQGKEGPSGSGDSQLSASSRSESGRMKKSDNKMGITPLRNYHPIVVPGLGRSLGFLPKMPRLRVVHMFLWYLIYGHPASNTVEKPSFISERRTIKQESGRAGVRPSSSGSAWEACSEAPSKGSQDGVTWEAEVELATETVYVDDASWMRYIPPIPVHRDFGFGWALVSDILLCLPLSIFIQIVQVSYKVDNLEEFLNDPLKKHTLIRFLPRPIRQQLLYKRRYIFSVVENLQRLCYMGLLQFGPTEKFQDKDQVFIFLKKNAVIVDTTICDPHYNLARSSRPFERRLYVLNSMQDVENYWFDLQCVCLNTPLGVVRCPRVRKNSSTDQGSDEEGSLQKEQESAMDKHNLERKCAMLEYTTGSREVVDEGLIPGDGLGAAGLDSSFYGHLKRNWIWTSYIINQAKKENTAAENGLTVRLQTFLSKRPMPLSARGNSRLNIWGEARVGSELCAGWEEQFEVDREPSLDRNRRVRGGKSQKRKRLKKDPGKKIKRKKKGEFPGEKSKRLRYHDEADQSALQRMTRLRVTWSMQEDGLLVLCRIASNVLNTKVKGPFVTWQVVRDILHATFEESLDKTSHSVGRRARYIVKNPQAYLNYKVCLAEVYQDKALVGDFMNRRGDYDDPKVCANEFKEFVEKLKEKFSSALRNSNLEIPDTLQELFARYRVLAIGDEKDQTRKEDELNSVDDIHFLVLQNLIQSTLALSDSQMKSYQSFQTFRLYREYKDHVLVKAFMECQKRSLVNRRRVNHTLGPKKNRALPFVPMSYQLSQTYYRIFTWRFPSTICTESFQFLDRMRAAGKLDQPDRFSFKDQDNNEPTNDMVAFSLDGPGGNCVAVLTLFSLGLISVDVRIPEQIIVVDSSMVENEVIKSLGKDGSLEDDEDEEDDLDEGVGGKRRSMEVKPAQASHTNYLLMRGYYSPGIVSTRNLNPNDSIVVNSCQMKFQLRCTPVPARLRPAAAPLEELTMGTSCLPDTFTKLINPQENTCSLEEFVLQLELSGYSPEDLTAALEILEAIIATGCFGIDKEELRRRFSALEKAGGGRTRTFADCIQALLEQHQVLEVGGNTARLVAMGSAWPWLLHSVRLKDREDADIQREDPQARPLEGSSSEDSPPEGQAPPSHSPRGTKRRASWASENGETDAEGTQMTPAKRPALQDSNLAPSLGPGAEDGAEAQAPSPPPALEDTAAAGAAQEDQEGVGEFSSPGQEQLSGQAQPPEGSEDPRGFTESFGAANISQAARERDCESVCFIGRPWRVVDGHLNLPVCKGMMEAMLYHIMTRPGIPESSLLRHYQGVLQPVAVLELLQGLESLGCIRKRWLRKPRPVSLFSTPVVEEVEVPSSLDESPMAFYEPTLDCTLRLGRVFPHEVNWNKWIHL
UniProt P29083: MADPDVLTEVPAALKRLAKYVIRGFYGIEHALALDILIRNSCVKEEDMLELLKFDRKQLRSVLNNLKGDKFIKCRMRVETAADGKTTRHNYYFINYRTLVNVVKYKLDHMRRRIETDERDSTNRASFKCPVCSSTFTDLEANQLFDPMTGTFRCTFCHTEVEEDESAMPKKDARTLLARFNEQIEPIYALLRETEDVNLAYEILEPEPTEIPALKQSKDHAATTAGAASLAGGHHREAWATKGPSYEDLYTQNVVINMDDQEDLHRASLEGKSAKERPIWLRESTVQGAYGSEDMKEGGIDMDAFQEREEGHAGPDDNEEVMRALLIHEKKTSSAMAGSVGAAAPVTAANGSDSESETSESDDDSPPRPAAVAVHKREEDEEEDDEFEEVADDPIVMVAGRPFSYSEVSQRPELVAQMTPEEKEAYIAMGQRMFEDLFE
UniProt Q9BQ67, whole entry, looked up: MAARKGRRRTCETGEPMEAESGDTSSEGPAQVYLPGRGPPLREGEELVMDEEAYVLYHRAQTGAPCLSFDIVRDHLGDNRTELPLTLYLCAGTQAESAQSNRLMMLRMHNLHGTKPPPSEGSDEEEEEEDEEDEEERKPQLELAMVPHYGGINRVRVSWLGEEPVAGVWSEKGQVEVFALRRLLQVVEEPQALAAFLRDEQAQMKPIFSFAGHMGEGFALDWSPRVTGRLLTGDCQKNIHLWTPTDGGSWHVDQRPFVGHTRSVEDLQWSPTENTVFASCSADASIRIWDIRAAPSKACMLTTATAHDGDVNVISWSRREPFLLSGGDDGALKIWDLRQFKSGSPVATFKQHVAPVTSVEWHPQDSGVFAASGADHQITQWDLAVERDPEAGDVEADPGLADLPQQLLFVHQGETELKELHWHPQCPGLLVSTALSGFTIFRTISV
UniProt Q13889: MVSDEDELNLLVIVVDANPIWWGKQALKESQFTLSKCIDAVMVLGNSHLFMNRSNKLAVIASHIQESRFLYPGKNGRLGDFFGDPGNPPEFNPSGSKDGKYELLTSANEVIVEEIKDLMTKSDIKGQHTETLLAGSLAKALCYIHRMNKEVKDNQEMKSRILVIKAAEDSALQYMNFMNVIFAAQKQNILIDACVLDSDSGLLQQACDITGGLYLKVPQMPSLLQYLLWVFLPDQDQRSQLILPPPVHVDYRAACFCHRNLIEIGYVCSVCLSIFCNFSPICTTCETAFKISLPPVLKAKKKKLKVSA
UniProt Q8WW33: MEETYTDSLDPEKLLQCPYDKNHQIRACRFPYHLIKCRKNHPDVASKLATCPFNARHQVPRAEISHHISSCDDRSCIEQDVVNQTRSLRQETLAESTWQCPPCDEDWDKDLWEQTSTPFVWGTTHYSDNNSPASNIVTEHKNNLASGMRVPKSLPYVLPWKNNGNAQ
UniProt Q16774: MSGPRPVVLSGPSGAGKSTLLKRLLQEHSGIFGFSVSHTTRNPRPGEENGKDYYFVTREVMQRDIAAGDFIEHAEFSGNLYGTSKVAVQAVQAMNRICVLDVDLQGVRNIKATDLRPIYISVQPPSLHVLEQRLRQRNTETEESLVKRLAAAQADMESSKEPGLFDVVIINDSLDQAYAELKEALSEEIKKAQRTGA
UniProt Q9Y450, whole entry, looked up: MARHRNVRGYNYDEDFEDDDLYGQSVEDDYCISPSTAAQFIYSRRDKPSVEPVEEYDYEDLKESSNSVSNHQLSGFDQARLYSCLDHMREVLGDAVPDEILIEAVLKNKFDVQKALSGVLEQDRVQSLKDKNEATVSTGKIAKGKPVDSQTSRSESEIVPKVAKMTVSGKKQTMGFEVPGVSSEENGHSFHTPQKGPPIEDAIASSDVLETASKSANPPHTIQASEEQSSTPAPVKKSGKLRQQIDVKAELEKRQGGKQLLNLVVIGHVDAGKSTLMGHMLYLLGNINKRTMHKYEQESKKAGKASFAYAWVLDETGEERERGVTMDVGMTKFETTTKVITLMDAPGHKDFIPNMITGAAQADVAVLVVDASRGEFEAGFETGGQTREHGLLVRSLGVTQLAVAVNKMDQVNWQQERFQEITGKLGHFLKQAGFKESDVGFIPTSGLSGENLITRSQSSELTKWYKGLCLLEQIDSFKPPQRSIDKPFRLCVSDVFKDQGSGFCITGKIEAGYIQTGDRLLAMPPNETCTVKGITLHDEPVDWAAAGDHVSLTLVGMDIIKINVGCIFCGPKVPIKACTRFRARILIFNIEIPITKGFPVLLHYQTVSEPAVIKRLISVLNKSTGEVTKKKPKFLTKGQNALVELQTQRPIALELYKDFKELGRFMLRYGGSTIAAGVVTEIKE

The list shows a part of the results.
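Further: competitive profiling in live THP-1 cells: cysteine peptides tagged with an iodoacetamide desthiobiotin (IA-DTB) probe, intensity after compound treatment relative to DMSO-treated cells.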

On to “GTF3C5_Q9Y5Q8_242_VCTNPVDR (UniProt Q9Y5Q8)”, for which the “probe-labelled cysteine peptide fold change” value was -0.0082 (10 µM) and -0.169 (50 µM).
Taken in the same sequence, the figures for “GRAMD1A_Q96CP6_576_AHGDGPQHPDPDPCAR (UniProt Q96CP6)” were -0.24 and -0.304.
Turning to GSR_P00390_467_MVCANK (UniProt P00390), the “probe-labelled cysteine peptide fold change” value was 0.158 (10 µM) and 0.355 (50 µM).
For the target “GRN_P28799_481_QHCCPAGYTCNVK (UniProt P28799)”, the “probe-labelled cysteine peptide fold change” value is -0.217 (10 µM) and -0.32 (50 µM).
Taken in the same sequence, the figures for “GTF2H2_Q13888_139_AVDMTCHGEPSLYNSLSIAMQTLK (UniProt Q13888)” were 0.136 and -0.00823.
For “GRN_P28799_165_VHCCPHGAFCDLVHTR (UniProt P28799)”, the “probe-labelled cysteine peptide fold change” value is, setting by setting: (10 µM) 0.0754; (50 µM) -0.0982.
Taken in the same sequence, the figures for “GSR_P00390_484_VVGIHMQGLGCDEMLQGFAVAVK (UniProt P00390)” were 0.071 and 0.0314.
For the target “GRHPR_Q9UBQ7_288_NCVILPHIGSATHR (UniProt Q9UBQ7)”, the “probe-labelled cysteine peptide fold change” value came to 0.293 (10 µM) and 0.0427 (50 µM).
For the target “HAUS1_Q96CS2_156_CLQEDVK (UniProt Q96CS2)”, the “probe-labelled cysteine peptide fold change” value reads like this: (10 µM) 0.151; (50 µM) 0.281.
Take “GTF3C5_Q9Y5Q8_432_NDGAENSCTER (UniProt Q9Y5Q8)”: the “probe-labelled cysteine peptide fold change” value is, setting by setting: (10 µM) -0.242; (50 µM) 0.262.
Consider “GTF3C1_Q12789_1091_CAMLEYTTGSR (UniProt Q12789)”, for which the “probe-labelled cysteine peptide fold change” value (10 µM) is -0.183 and the “probe-labelled cysteine peptide fold change” value (50 µM) is -0.0281.
Taken in the same sequence, the figures for “GTF3C1_Q12789_42_VPPFPLPLEPCTQEFLWR (UniProt Q12789)” were 0.155 and 0.236.
In the case of “GTF3C1_Q12789_853_AGVRPSSSGSAWEACSEAPSK (UniProt Q12789)”, the “probe-labelled cysteine peptide fold change” value reads like this: (10 µM) -0.24; (50 µM) -0.655.
Taken in the same sequence, the figures for “HACE1_Q8IYU2_508_IIFDHFHFLLECPELMSR (UniProt Q8IYU2)” were -0.00126 and 0.00429.
Taken in the same sequence, the figures for “GTF3A_Q92664_191_AHEGYVCQK (UniProt Q92664)” were 0.112 and -0.151.
Taken in the same sequence, the figures for “HAT1_O14929_376_CLRPEELTNQMNQIEISMQHEQLEESFQELVEDYRR (UniProt O14929)” were -0.229 and -0.0747.
As to “H2AFY_O75367_276_FVIHCNSPVWGADKCEELLEK (UniProt O75367)”, the “probe-labelled cysteine peptide fold change” value (10 µM) is -0.198 and the “probe-labelled cysteine peptide fold change” value (50 µM) was -0.854.
Regarding “GSS_P48637_422_VVQCISELGIFGVYVR (UniProt P48637)”, the “probe-labelled cysteine peptide fold change” value reads like this: (10 µM) 0.186; (50 µM) 0.0454.
Taken in the same sequence, the figures for “GTF2E1_P29083_157_CTFCHTEVEEDESAMPK (UniProt P29083)” were 0.0528 and -0.0736.
With “GRWD1_Q9BQ67_299_ACMLTTATAHDGDVNVISWSR (UniProt Q9BQ67)”, the “probe-labelled cysteine peptide fold change” value (10 µM) was -0.0232 and the “probe-labelled cysteine peptide fold change” value (50 µM) was 0.0139.
As to “GPX4_P36969_134_ICVNGDDAHPLWK (UniProt P36969)”, the “probe-labelled cysteine peptide fold change” value (10 µM) was determined as 0.449 and the “probe-labelled cysteine peptide fold change” value (50 µM) is 0.437.
Taken in the same sequence, the figures for “GTF2H3_Q13889_142_ALCYIHR (UniProt Q13889)” were 0.00116 and 0.0865.
Taken in the same sequence, the figures for “GTSF1_Q8WW33_17_LLQCPYDK (UniProt Q8WW33)” were -0.0775 and -0.132.
“HAUS5_O94927_350_CCLWTELK (UniProt O94927)”: the “probe-labelled cysteine peptide fold change” value is, setting by setting: (10 µM) -0.0042; (50 µM) -0.506.
In the case of “GUK1_Q16774_98_ICVLDVDLQGVR (UniProt Q16774)”, the “probe-labelled cysteine peptide fold change” value was 0.271 (10 µM) and 0.28 (50 µM).
For “H2AFY2_Q9P0M6_286_CEEQLEETIK (UniProt Q9P0M6)”, the “probe-labelled cysteine peptide fold change” value (10 µM) stood at 0.0719 and the “probe-labelled cysteine peptide fold change” value (50 µM) is 0.424.
Regarding “HBS1L_Q9Y450_84_LYSCLDHMR (UniProt Q9Y450)”, the “probe-labelled cysteine peptide fold change” value runs as follows: (10 µM) 0.0793; (50 µM) -0.0662.
Turning to “GTF3C1_Q12789_1999_VVDGHLNLPVCK (UniProt Q12789)”, the “probe-labelled cysteine peptide fold change” value reads like this: (10 µM) -0.0557; (50 µM) -0.136.
Taken in the same sequence, the figures for “GRAMD4_Q6IC98_463_GNFHEIFNLTENERPLAVCENGWR (UniProt Q6IC98)” were 0.224 and -0.546.
On to “GTSE1_Q9NYZ3_539_AVGSPLCVPAR (UniProt Q9NYZ3)”, for which the “probe-labelled cysteine peptide fold change” value (10 µM) is 0.32 and the “probe-labelled cysteine peptide fold change” value (50 µM) was 0.516.
Taken in the same sequence, the figures for “HACL1_Q9UJ83_307_FIQVDICAEELGNNVKPAVTLLGNIHAVTK (UniProt Q9UJ83)” were 0.0124 and 0.19.
Consider “GSTM3_P21266_91_HNMCGETEEEK (UniProt P21266)”, for which the “probe-labelled cysteine peptide fold change” value is, setting by setting: (10 µM) 0.109; (50 µM) 0.121.
Taken in the same sequence, the figures for “GSDMD_P57764_268_CLHNFLTDGVPAEGAFTEDFQGLRAEVETISK (UniProt P57764)” were 0.695 and -0.887.
For the target “HARS_P12081_224_ILDGMFAICGVSDSK (UniProt P12081)”, the “probe-labelled cysteine peptide fold change” value reads like this: (10 µM) 0.0309; (50 µM) -0.174.
Regarding “GSK3B_P49841_317_TPPEAIALCSR (UniProt P49841)”, the “probe-labelled cysteine peptide fold change” value (10 µM) was -0.0812 and the “probe-labelled cysteine peptide fold change” value (50 µM) stood at 0.0559.
“GRK6_P43250_425_SLCSQLLCK (UniProt P43250)”: the “probe-labelled cysteine peptide fold change” value reads like this: (10 µM) -0.224; (50 µM) -0.00244.
Taken in the same sequence, the figures for “GTSF1_Q8WW33_100+103_QETLAESTWQCPPCDEDWDK (UniProt Q8WW33)” were -0.372 and -0.0365.
Taken in the same sequence, the figures for “GSTM1_P09488_78_ITQSNAILCYIAR (UniProt P09488)” were -0.0762 and -0.286.
Regarding “HAUS6_Q7Z4H7_185_QDCVTQK (UniProt Q7Z4H7)”, the “probe-labelled cysteine peptide fold change” value was 0.0481 (10 µM) and -0.0948 (50 µM).

For the origin of these results see the supplement of paper PMC12067093, “Discovery and optimisation of a covalent ligand for TRIM25 and its application to targeted protein ubiquitination” (Chemical Science, 2025).
